In PubChem BioAssay AID330 (DTP/NCI, 2004):
The list is a part of this screen's results and no random one: it gathers tests that were run many times, whatever their T/C, doses with no T/C, and many T/C values between a quarter and a half above the control. Other doses and runs of a compound stand elsewhere. T/C: endpoint of the treated group in % of that of the vehicle group. Some entries give survivors of the animals treated and no T/C: the source files T/C as zero there, which appears to mark a toxic dose or a test without result, not a measured value. Some doses without a T/C left all or most animals alive at the check, yet need not have been tolerated: the source hardly ever lists a survival T/C far under the control, and the zero likely stands for such cases as well. Survivors were counted at the toxicity check, usually on the fifth day, unless a day is given; later deaths do not show. Schedule codes are those of the source, read here as Q, the interval in days (D) or hours (H), X, the number of doses. Some doses were run more than once; their values stand side by side, smallest first. For survival time, this PubChem deposit counts one and a half times the control or more as active, and values a quarter to a half above the control carry no call in these data; other NCI protocols may use other cut-offs.

Tested on: P388 leukemia ip, CD2F1 mice, survival T/C
Experiment: NCI In Vivo Anticancer Drug Screen. Data for tumor model P388 Leukemia (intraperitoneal) in CD2F1 (CDF1) mice
Details: T/C endpoint: median survival time, higher T/C = longer survival
[1] = dose: 100.0 mg/kg/injection, schedule: Q01DX009 (ip), vehicle: saline with Tween-80
[2] = dose: 200.0 mg/kg/injection, schedule: Q01DX009 (ip), vehicle: saline with Tween-80
[3] = dose: 240.0 mg/kg/injection, schedule: Q01DX005 (ip), vehicle: saline with Tween-80
[4] = dose: 100.0 mg/kg/injection, schedule: Q01DX005 (ip), vehicle: Klucel (hydroxypropylcellulose) (HPC)
[5] = dose: 200.0 mg/kg/injection, schedule: Q01DX005 (ip), vehicle: Klucel (hydroxypropylcellulose) (HPC)
[6] = dose: 400.0 mg/kg/injection, schedule: Q01DX009 (ip), vehicle: saline with Tween-80

[Ag].[Ag].[NH-]S(=O)(=O)c1ccc(N=Nc2cc(N=Nc3ccc(S([NH-])(=O)=O)cc3)c3c(NC(=O)C(Cl)Cl)cccc3c2OC(=O)C(Cl)Cl)cc1.[c-]1nccs1.[c-]1nccs1
survivor count [1]: 4 of 6 | survivor count [2]: 0 of 6

CN1C(=O)N(C2CCCCC2)C(=O)C(C)(CN2CCCCC2)C1=O (stereo unspecified)
survivor count (dose: 100.0 mg/kg/injection, schedule: Q01DX009 (sc), vehicle: saline with Tween-80): 6 of 6

O=S(=O)(O)O.[Cu+2].[NH-]CC[N-]CC[N-]CC[NH-]
survivor count (dose: 50.0 mg/kg/injection, schedule: Q04DX002 (ip), vehicle: saline): 0 of 6 | survivor count (dose: 100.0 mg/kg/injection, schedule: Q04DX002 (ip), vehicle: saline): 0 of 6 | survivor count (dose: 200.0 mg/kg/injection, schedule: Q04DX002 (ip), vehicle: saline): 0 of 6

CN1CC2(C)CCCC(C)(C1)C2O (stereo unspecified)
survivor count (dose: 200.0 mg/kg/injection, schedule: Q01DX005 (ip), vehicle: saline with Tween-80): 0 of 6

C=C1C(=O)OC2/C=C(\C)CC/C=C(/C(=O)OC)C(OC(C)=O)C(OC(=O)C(C)(O)C(C)O)C12 (stereo unspecified)
T/C (dose: 6.0 mg/kg/injection, schedule: Q01DX009 (ip), vehicle: Klucel (hydroxypropylcellulose) (HPC)): 129 % of control

O=c1c2ccccc2sc2c([N+](=O)[O-])ccc(NCC3CCCN4CCCCC34)c12 (stereo unspecified)
survivor count (dose: 308.0 mg/kg/injection, schedule: Q01DX005 (ip), vehicle: saline with Tween-80): 3 of 6

O=C(CI)Nc1cccc(C(=O)O)c1O
survivor count (dose: 50.0 mg/kg/injection, schedule: Q01DX009 (ip), vehicle: Klucel (hydroxypropylcellulose) (HPC)): 3 of 6 | survivor count (dose: 100.0 mg/kg/injection, schedule: Q01DX009 (ip), vehicle: Klucel (hydroxypropylcellulose) (HPC)): 0 of 6 | survivor count (dose: 200.0 mg/kg/injection, schedule: Q01DX009 (ip), vehicle: Klucel (hydroxypropylcellulose) (HPC)): 0 of 6

Clc1ccc(N=C2N=C(Nc3ccc(Cl)cn3)c3ccccc32)nc1
survivor count [1]: 6 of 6 | survivor count [2]: 6 of 6

COc1ccc(/C=C\c2cc(OC)c(OC)c(OC)c2)c(O)c1O
T/C (dose: 2.75 mg/kg/injection, schedule: Q01DX009 (ip), vehicle: saline + alcohol): 126 % of control | T/C (dose: 5.5 mg/kg/injection, schedule: Q01DX009 (ip), vehicle: saline + alcohol): 129 % of control | T/C (dose: 6.25 mg/kg/injection, schedule: Q01DX009 (ip), vehicle: saline + Tween-80 + alcohol): 129 and 149 % of control | T/C (dose: 11.0 mg/kg/injection, schedule: Q01DX009 (ip), vehicle: saline + alcohol): 129 % of control | survivor count (dose: 25.0 mg/kg/injection, schedule: Q01DX009 (ip), vehicle: saline + Tween-80 + alcohol): 6 of 6 | survivor count (dose: 50.0 mg/kg/injection, schedule: Q01DX009 (ip), vehicle: saline + Tween-80 + alcohol): 4 of 6 | survivor count (dose: 100.0 mg/kg/injection, schedule: Q01DX009 (ip), vehicle: saline + Tween-80 + alcohol): 6 of 6 | survivor count (dose: 200.0 mg/kg/injection, schedule: Q01DX009 (ip), vehicle: saline + Tween-80 + alcohol): 2 of 5

C/C=C1\CN2CCC34c5ccccc5N5C(C6C7CC8N(CCC89c8ccccc8N(C(C)=O)C69)C/C7=C\C)OCC(C1CC23)C54 (stereo unspecified)
survivor count (dose: 96.5 mg/kg/injection, schedule: Q01DX009 (ip), vehicle: saline with Tween-80): 1 of 6

C[C](C)(C)[Ge]([O][Ge]([c]1ccccc1)[c]1ccccc1)([O][Ge]([c]1ccccc1)[c]1ccccc1)[C](C)(C)C
survivor count [3]: 3 of 6

c1ccc(Cn2nnnc2Nc2ccccc2)cc1
survivor count [4]: 3 of 5

CCNCC1c2ccccc2-c2nc3ccccc3nc2-c2ccccc21
survivor count (dose: 400.0 mg/kg/injection, schedule: Q04DX002 (ip), vehicle: saline with Tween-80): 0 of 6

CC(C)(C)c1cc(C#C[Si](C)(C)C)cc(C(C)(C)C)c1
survivor count (dose: 50.0 mg/kg/injection, schedule: Q01DX005 (ip), vehicle: Klucel (hydroxypropylcellulose) (HPC)): 6 of 6 | survivor count [4]: 6 of 6 | survivor count [5]: 6 of 6

CCO/C=C1\SC(=S)N(c2ccccc2OC)C1=O
T/C [1]: 135 % of control | T/C [2]: 135 % of control | survivor count (dose: 300.0 mg/kg/injection, schedule: Q01DX009 (ip), vehicle: saline with Tween-80): 6 of 6 | survivor count [6]: 5 of 6 | T/C (dose: 400.0 mg/kg/injection, schedule: Q04DX003 (ip), vehicle: saline with Tween-80): 127 % of control

CN=C(N)N/N=C(\C)c1ccc2c(c1)Cc1cc(Cl)ccc1-2
T/C (dose: 25.0 mg/kg/injection, schedule: Q04DX002 (ip), vehicle: saline with Tween-80): 126 % of control | T/C (dose: 50.0 mg/kg/injection, schedule: Q04DX002 (ip), vehicle: saline with Tween-80): 130 % of control | survivor count (dose: 100.0 mg/kg/injection, schedule: Q04DX002 (ip), vehicle: saline with Tween-80): 1 of 6 and 5 of 6

CCC[CH2][Sn]([CH2]CCC)([CH2]CCC)[CH2]CCN(C)C
survivor count (dose: 200.0 mg/kg/injection, schedule: Q01DX009 (ip), vehicle: saline): 0 of 6

O=C1NN=C(c2ccc(Br)cc2)CS1
survivor count [6]: 3 of 6

OC(Cc1ccnc2ccccc12)C(Cl)(Cl)Cl (stereo unspecified)
survivor count (dose: 100.0 mg/kg/injection, schedule: Q04DX003 (ip), vehicle: saline with Tween-80): 6 of 6

COc1ccc(/C=N/NC(=S)NC23CC4CC(CC(C4)C2)C3)cc1OC
survivor count (dose: 60.0 mg/kg/injection, schedule: Q01DX005 (ip), vehicle: saline with Tween-80): 6 of 6 | survivor count (dose: 120.0 mg/kg/injection, schedule: Q01DX005 (ip), vehicle: saline with Tween-80): 6 of 6 | survivor count [3]: 6 of 6

O=[N+]([O-])c1cccnc1Sc1ccnc(Sc2ncccc2[N+](=O)[O-])n1
survivor count (dose: 50.0 mg/kg/injection, schedule: Q01DX009 (ip), vehicle: saline): 6 of 6 | survivor count [1]: 6 of 6

NC(Cc1ccccc1)C(=O)NC(Cc1ccccc1)C(=O)O (stereo unspecified)
survivor count (dose: 400.0 mg/kg/injection, schedule: Q01DX009 (ip), vehicle: saline): 4 of 6

CN(C)c1ccc(C(=C2C=CC(=[N+](C)C)C=C2)c2ccc(N(C)C)cc2)cc1
T/C (dose: 0.78 mg/kg/injection, schedule: Q01DX009 (ip), vehicle: saline): 128 % of control | T/C (dose: 1.56 mg/kg/injection, schedule: Q01DX009 (ip), vehicle: saline): 126 % of control | T/C (dose: 3.12 mg/kg/injection, schedule: Q01DX009 (ip), vehicle: saline): 134 % of control | survivor count (dose: 6.25 mg/kg/injection, schedule: Q01DX009 (ip), vehicle: saline): 3 of 6

COc1ccc2nc3ccccc3c(NCCCCCCCCNc3c4ccccc4nc4ccc(OC)cc34)c2c1
survivor count (dose: 10.0 mg/kg/injection, schedule: Q01DX009 (ip), vehicle: other): 1 of 4 | survivor count (dose: 15.0 mg/kg/injection, schedule: Q01DX009 (ip), vehicle: other): 0 of 4 | survivor count (dose: 20.0 mg/kg/injection, schedule: Q01DX009 (ip), vehicle: other): 0 of 4

NCC(CC(=O)O)c1ccc(Cl)cc1 (stereo unspecified)
survivor count [5]: 0 of 6

Cc1c2cc[n+](C)cc2c(C)c2c1[nH]c1ccc(O)c(-[n+]3ccccc3)c12
T/C (dose: 10.0 mg/kg/injection, schedule: Q04DX003 (ip), vehicle: saline): 134 % of control

N#Cc1cc(Br)ccc1[N+](=O)[O-]
survivor count (dose: 25.0 mg/kg/injection, schedule: Q01DX009 (ip), vehicle: saline): 6 of 6

COc1cccc2c(NCCCN(C)CCCNc3c4ccccc4nc4c(OC)cccc34)c3ccccc3nc12
T/C (dose: 5.0 mg/kg/injection, schedule: Q01DX009 (ip), vehicle: water): 127 % of control | survivor count (dose: 20.0 mg/kg/injection, schedule: Q01DX009 (ip), vehicle: water): 5 of 6

COc1ccc2nc3cc(Cl)ccc3c(NCCC3CCCN4CCCCC34)c2c1 (stereo unspecified)
survivor count (dose: 50.0 mg/kg/injection, schedule: Q01DX005 (ip), vehicle: distilled water + Tween-80): 5 of 6 | survivor count (dose: 100.0 mg/kg/injection, schedule: Q01DX005 (ip), vehicle: distilled water + Tween-80): 0 of 6 | survivor count (dose: 200.0 mg/kg/injection, schedule: Q01DX005 (ip), vehicle: distilled water + Tween-80): 0 of 6
